Assay results published in the supplement of paper PMC10949913.

What was measured:
NCI-H295R [1] = assay: ExcessHSA synergy score with TAK-243; higher = less synergy (negative = synergistic); conditions: combined with: TAK-243 (MLN-7243) matrix, 9-point 1:2 dilution
Description: (§1)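 Each drug was tested at 9 points with 1:2 dilution; viability was read by CellTiter-Glo as in the single-agent screen. Synergy is scored as ExcessHSA (sum of excess over highest single agent; negative = synergy) and the Beta interaction parameter (<1 synergy).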

CU-ACC1 [2] = assay: as above; conditions: combined with: TAK-243 (MLN-7243) matrix, 9-point 1:2 dilution
Description: as §1

NCI-H295R [3] = assay: AC50 viability; higher = less potent; conditions: 48 h
In short: (§2)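 Three adrenocortical carcinoma cell lines were seeded at 500–1,000 cells/well in 5 µL medium in 1,536-well plates. 23 nL of each MIPE 5.0 library compound was added at 11 concentrations. After 48 h (per the protocol name), CellTiter-Glo was added for 15 minutes at room temperature and luminescence was read. Signals were normalised per plate to vehicle and empty-well controls. AC50 and area under the curve came from fitted concentration-response curves, keeping only inhibitory or non-responding curve classes.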

CU-ACC1 [4] = assay: AC50 viability; higher = less potent; conditions: 48 h
In short: as §2

NCI-H295R [5] = assay: area under concentration-response curve (viability) (AUC (a.u.)); higher = less active; conditions: 48 h
In short: as §2

CU-ACC1 [6] = assay: as above; conditions: 48 h
In short: as §2

CU-ACC2 [7] = assay: AC50 viability; higher = less potent; conditions: 48 h
In short: as §2

CU-ACC2 [8] = assay: area under concentration-response curve (viability) (AUC (a.u.)); higher = less active; conditions: 48 h
In short: as §2

In the case of COC(=O)[C@H](CCCN=C(N)N)NS(=O)(=O)c1ccc(C)cc1 [TAME], the “ExcessHSA synergy score with TAK-243” value (NCI-H295R [1]) is reported as -279 and the “ExcessHSA synergy score with TAK-243” value (CU-ACC1 [2]) is reported as -262.

With C[C@@H]1C[C@H](N)C[C@H](c2ccncc2NC(=O)c2ccc(F)c(-c3c(F)cccc3F)n2)C1 the AC50 viability (NCI-H295R [3]) was 23.5 µM, the AC50 viability (CU-ACC1 [4]) was 23.5 µM and the “area under concentration-response curve” value (NCI-H295R [5]) was 488. For the same molecule, the “area under concentration-response curve” value (CU-ACC1 [6]) was 453.

COc1cc(N2CCN(C(C)=O)CC2)ccc1Nc1ncc(Cl)c(Nc2ccc(N3CCN(C(C)=O)CC3)cc2OC)n1 gave an AC50 viability (CU-ACC2 [7]) of 11.8 µM, an AC50 viability (NCI-H295R [3]) of 8.33 µM and an AC50 viability (CU-ACC1 [4]) of 9.34 µM. For the same molecule, the “area under concentration-response curve” value (CU-ACC2 [8]) was 277, the “area under concentration-response curve” value (NCI-H295R [5]) was 272 and the “area under concentration-response curve” value (CU-ACC1 [6]) was 268.

COC(=O)[C@H](CCCNC(=N)N)N[S+](=O)([O-])c1ccc(C)cc1 was tested, and the “area under concentration-response curve” value (CU-ACC2 [8]) was 626 and the “area under concentration-response curve” value (CU-ACC1 [6]) was 569.

CC1=C(C=CC=C1)N2C(=O)C3=C(C=CC=C3C)\N=C2\C[N]4N=C(C5=CC(=CC=C5)O)C6=C(N)N=CN=C46 was tested, and the “area under concentration-response curve” value (NCI-H295R [5]) was 584 and the “area under concentration-response curve” value (CU-ACC1 [6]) was 543.

For Cc1nc2c(-c3cnc(N)nc3)nc(N3CCOCC3)nc2n1C(C)C, the “area under concentration-response curve” value (CU-ACC2 [8]) was 292, the “area under concentration-response curve” value (NCI-H295R [5]) was 353 and the “area under concentration-response curve” value (CU-ACC1 [6]) was 352.
